Taken from: PubChem BioAssay AID686938 (Drosophila RNAi Screening Center, 2013)
In all, the deposit lists about 23,000 reagents; shown is a random part of those with a known target gene and a result. Of all reagents, 75 (0.33%) got an active call. 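Raw plate signals without normalisation; calls rest on plate z-scores that were not deposited; ratio present for only 364 wells.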 A plus sign joins genes that one reagent is predicted to hit. Not given: the dose of the treatment.

Screen: 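Fly genes required for calcium entry once internal stores are emptied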 (primary screen)
Cell system: Drosophila S2R+ cells
Reagent: long dsRNA against Drosophila genes, about 0.25 µg dsRNA per well, roughly 10,000 cells
Duration: 5 days of knock-down before the calcium assay
Treatment: thapsigargin (SERCA pump blocker) to empty calcium stores; entry signal taken 4 min after adding it
Read-out: 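Duplicate raw fluo-4 intensities per well from a plate reader, at rest and four minutes after thapsigargin emptied calcium stores; entry-to-rest ratio filled for only some wells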
Scale: calcium entry signal: higher = stronger calcium signal after store depletion; entry to resting ratio: higher = more calcium entry relative to resting level; resting calcium signal: higher = higher resting calcium signal
Hit rule: 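Hit if the duplicate-averaged plate z-score for entry over resting signal is under −3; wells with weak total dye signal (Fmax z < −2) or more than 5 off-targets removed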
Meaning of the calls: active = strongly reduced calcium entry; inactive = no strong reduction

| target gene | dsRNA | calcium entry signal, replicate 1 (fluorescence units) | calcium entry signal, replicate 2 (fluorescence units) | entry to resting ratio | resting calcium signal, replicate 1 (fluorescence units) | resting calcium signal, replicate 2 (fluorescence units) | activity call |
| --- | --- | --- | --- | --- | --- | --- | --- |
| twe (GeneID 34954) | DRSC03628 | 4.57e7 | – | – | 2.19e7 | – | inactive |
| Hacl (GeneID 37285) | DRSC06061 | 3.33e7 | 2.95e7 | – | 1.58e7 | 1.49e7 | inactive |
| CHKov1 (GeneID 43067) | DRSC01566 | 2.58e7 | 4.17e7 | – | 1.55e7 | 1.77e7 | inactive |
| CHKov1 (GeneID 43067) | DRSC01696 | 3.23e7 | 4.62e7 | – | 1.88e7 | 2.38e7 | inactive |
| CHKov1 (GeneID 43067) | DRSC14258 | 3.18e7 | 5.79e7 | – | 1.74e7 | 2.30e7 | inactive |
| CHKov1 (GeneID 43067) | DRSC20937 | 3.11e7 | 4.22e7 | – | 1.37e7 | 1.83e7 | inactive |
| CG2278 (GeneID 31751) | DRSC18226 | 3.26e7 | 3.81e7 | – | 1.79e7 | 1.84e7 | inactive |
| Gr8a (GeneID 31865) | DRSC18043 | 2.96e7 | 3.87e7 | – | 1.52e7 | 2.03e7 | inactive |
| CG8654 (GeneID 37275) | DRSC07231 | 3.05e7 | 2.67e7 | – | 1.48e7 | 1.35e7 | inactive |
| CG42826 (GeneID 10178905) | DRSC10682 | 3.99e7 | 3.92e7 | – | 1.91e7 | 1.62e7 | inactive |
| CG11382 (GeneID 31069) | DRSC18624 | 3.65e7 | 5.94e7 | 2.2 | 1.67e7 | 2.57e7 | inactive |
| Hsepi (GeneID 35569) | DRSC04986 | 4.69e7 | 4.58e7 | – | 2.30e7 | 2.17e7 | inactive |
| xmas (GeneID 44271) | DRSC21306 | 1.52e7 | 1.31e7 | – | 1.03e7 | 8.47e6 | active |
| xmas (GeneID 44271) | DRSC22178 | 2.92e7 | 3.74e7 | – | 1.40e7 | 1.95e7 | inactive |
| Mst33A (GeneID 34578) | DRSC03371 | 3.64e7 | 4.26e7 | – | 1.79e7 | 1.82e7 | inactive |
| Or88a (GeneID 41715) | DRSC16770 | 3.53e7 | 4.63e7 | – | 1.75e7 | 5.28e7 | inactive |
| CG31103 (GeneID 43030) | DRSC22324 | 3.45e7 | 4.77e7 | – | 1.61e7 | 2.75e7 | inactive |
| CG3156 (GeneID 30994) | DRSC18503 | 3.39e7 | 4.58e7 | – | 1.66e7 | 2.09e7 | inactive |
| Acox57D-d (GeneID 37446) | DRSC04561 | 3.98e7 | – | – | 2.06e7 | – | inactive |
| app (GeneID 39399) | DRSC09159 | 5.16e7 | 5.21e7 | – | 2.70e7 | 2.28e7 | inactive |
| app (GeneID 39399) | DRSC10246 | 3.03e7 | 3.61e7 | – | 1.48e7 | 1.54e7 | inactive |
| app (GeneID 39399) | DRSC10526 | 3.06e7 | 4.64e7 | – | 1.64e7 | 1.99e7 | inactive |
| Dhc62B (GeneID 38226) | DRSC08655 | 3.99e7 | 3.86e7 | – | 1.91e7 | 1.80e7 | inactive |
| CG14221 (GeneID 32961) | DRSC19578 | 3.74e7 | 4.11e7 | – | 2.06e7 | 1.83e7 | inactive |
| cona (GeneID 42213) | DRSC16281 | 4.40e7 | 4.29e7 | – | 6.18e7 | 1.90e7 | inactive |
| CG12684 (GeneID 31390) | DRSC17875 | 3.18e7 | 4.33e7 | – | 1.55e7 | 1.98e7 | inactive |
| CG11664 (GeneID 31033) | DRSC18650 | 4.58e7 | 5.75e7 | 2 | 2.26e7 | 2.21e7 | inactive |
| CG12985 (GeneID 32774) | DRSC19505 | 3.01e7 | 2.87e7 | – | 1.58e7 | 1.44e7 | inactive |
| Ubc4 (GeneID 39133) | DRSC11312 | 5.18e7 | 4.05e7 | – | 3.28e7 | 1.64e7 | inactive |
| Pask (GeneID 37824) | DRSC04337 | 3.97e7 | – | – | 1.88e7 | – | inactive |
| CG15082 (GeneID 37173) | DRSC06513 | 4.14e7 | 4.42e7 | – | 1.73e7 | 2.12e7 | inactive |
| CG33491 (retired record) + CG33496 (retired record) + CG33487 (retired record) + 1 more | DRSC22969 | 3.53e7 | 4.02e7 | – | 2.00e7 | 1.74e7 | inactive |
| AsnS (GeneID 2768965) | DRSC11468 | 3.28e7 | 3.57e7 | – | 1.63e7 | 1.56e7 | inactive |
| CG7992 (GeneID 32917) | DRSC20070 | 5.12e7 | 6.10e7 | – | 2.60e7 | 2.58e7 | inactive |
| eIF3b (GeneID 36981) | DRSC06900 | 2.69e7 | 1.70e7 | – | 1.68e7 | 1.08e7 | inactive |
| zda (GeneID 37144) | DRSC06936 | 3.70e7 | 4.20e7 | – | 1.87e7 | 2.06e7 | inactive |
| CG32198 (GeneID 317909) | DRSC09553 | 4.33e7 | 4.22e7 | – | 1.96e7 | 2.09e7 | inactive |
| Ugalt (GeneID 31255) | DRSC18467 | 4.84e7 | 2.72e7 | 2.4 | 2.03e7 | 1.28e7 | inactive |
| Tmf (GeneID 31629) | DRSC18368 | 2.94e7 | 3.99e7 | – | 1.55e7 | 1.81e7 | inactive |
| Mettl14 (GeneID 34138) | DRSC03073 | 5.04e7 | – | – | 2.53e7 | – | inactive |
| smog (GeneID 33690) | DRSC00334 | 3.50e7 | 3.52e7 | – | 1.70e7 | 1.61e7 | inactive |
| smog (GeneID 33690) | DRSC00335 | 3.79e7 | 4.10e7 | – | 1.82e7 | 1.83e7 | inactive |
| smog (GeneID 33690) | DRSC23053 | 4.55e7 | 3.40e7 | – | 2.45e7 | 1.63e7 | inactive |
| CG43124 (GeneID 12798282) | DRSC13867 | 3.66e7 | 3.72e7 | – | 1.90e7 | 1.92e7 | inactive |
| Pgant3 (GeneID 35627) | DRSC05942 | 4.18e7 | – | – | 2.16e7 | – | inactive |
| Nmt (GeneID 38909) | DRSC11236 | 2.88e7 | 4.09e7 | – | 1.33e7 | 2.04e7 | inactive |
| Eig71Ej (GeneID 39711) | DRSC11157 | 4.58e7 | 6.05e7 | – | 2.16e7 | 2.59e7 | inactive |
| CstF64 (GeneID 42239) | DRSC16616 | 3.79e7 | 3.97e7 | – | 4.73e7 | 1.85e7 | inactive |
| CG12769 (GeneID 35770) | DRSC06167 | 3.49e7 | 3.01e7 | – | 1.46e7 | 1.43e7 | inactive |
| CHES-1-like (GeneID 31678) | DRSC18447 | 3.92e7 | 4.44e7 | – | 1.85e7 | 2.17e7 | inactive |
| CG11334 (GeneID 43713) | DRSC14066 | 4.54e7 | 4.76e7 | – | 2.36e7 | 2.10e7 | inactive |
| CG11334 (GeneID 43713) | DRSC14302 | 3.21e7 | 3.58e7 | 2 | 1.59e7 | 1.50e7 | inactive |
| BomT3 (GeneID 42598) | DRSC13537 | 4.15e7 | 2.63e7 | – | 2.09e7 | 1.34e7 | inactive |
| BomT3 (GeneID 42598) | DRSC15871 | 4.28e7 | 5.56e7 | – | 5.18e7 | 2.41e7 | inactive |
| eIF2alpha (GeneID 32617) | DRSC20327 | 2.15e7 | 1.64e7 | – | 1.28e7 | 9.50e6 | inactive |
| CG42822 (GeneID 10178916) | DRSC13232 | 4.28e7 | 2.46e7 | – | 1.91e7 | 1.19e7 | inactive |
| CG10993 (GeneID 32344) | DRSC19362 | 1.73e7 | 2.02e7 | – | 9.73e6 | 9.79e6 | inactive |
| beat-IV (GeneID 42778) | DRSC14195 | 5.06e7 | 4.49e7 | – | 2.28e7 | 1.95e7 | inactive |
| beat-IV (GeneID 42778) | DRSC14673 | 3.55e7 | 5.89e7 | – | 1.76e7 | 2.28e7 | inactive |

Copied from the listing (4 entries):
| target gene | dsRNA | calcium entry signal, replicate 1 (fluorescence units) | calcium entry signal, replicate 2 (fluorescence units) | entry to resting ratio | resting calcium signal, replicate 1 (fluorescence units) | resting calcium signal, replicate 2 (fluorescence units) | activity call |
| --- | --- | --- | --- | --- | --- | --- | --- |
| Hacl (GeneID 37285) | DRSC06061 | 3.33e7 | 2.95e7 | – | 1.58e7 | 1.49e7 | inactive |
| CHKov1 (GeneID 43067) | DRSC01566 | 2.58e7 | 4.17e7 | – | 1.55e7 | 1.77e7 | inactive |
| CHKov1 (GeneID 43067) | DRSC01696 | 3.23e7 | 4.62e7 | – | 1.88e7 | 2.38e7 | inactive |
| CHKov1 (GeneID 43067) | DRSC14258 | 3.18e7 | 5.79e7 | – | 1.74e7 | 2.30e7 | inactive |
